Publication PMC12820563, “FoxP3 forms a head-to-head dimer in vivo and stabilizes its multimerization on adjacent microsatellites”

Amino acid sequences for entries named in this document (tags omitted). Residues count along the entry.
UniProt Q99JB6, 188-423: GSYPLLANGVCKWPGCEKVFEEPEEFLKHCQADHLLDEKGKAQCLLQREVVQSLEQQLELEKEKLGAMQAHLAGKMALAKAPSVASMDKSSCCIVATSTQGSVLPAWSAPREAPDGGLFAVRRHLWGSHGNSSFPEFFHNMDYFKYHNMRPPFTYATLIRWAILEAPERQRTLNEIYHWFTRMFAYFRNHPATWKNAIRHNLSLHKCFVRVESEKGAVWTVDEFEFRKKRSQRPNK

Assays:
[1] = test system: FoxP3RBR-C-Opossum-mFoxP3FKH + NFAT1 DBD; test: EMSA; conditions: dimer, affinity modestly reduced for some species; EMSA: 20 mM HEPES pH 7.5, 150 mM NaCl, 1.5 mM MgCl2, 2 mM DTT, 4 C, 0.2 uM DNA (RBR-FKH 0.8 uM, NFAT 0.4 uM); recombinant protein
[2] = test system: FoxP3RBR-C-Frog-mFoxP3FKH + NFAT1 DBD; test: EMSA; conditions: dimer, affinity modestly reduced for some species; EMSA: 20 mM HEPES pH 7.5, 150 mM NaCl, 1.5 mM MgCl2, 2 mM DTT, 4 C, 0.2 uM DNA (RBR-FKH 0.8 uM, NFAT 0.4 uM); recombinant protein
[3] = test system: FoxP3RBR-C-Zebrafish-mFoxP3FKH + NFAT1 DBD; test: EMSA; conditions: dimer, affinity modestly reduced for some species; EMSA: 20 mM HEPES pH 7.5, 150 mM NaCl, 1.5 mM MgCl2, 2 mM DTT, 4 C, 0.2 uM DNA (RBR-FKH 0.8 uM, NFAT 0.4 uM); recombinant protein
[4] = test system: FoxP4 RBR-FKH + NFAT1 DBD; test: EMSA; conditions: monomer; EMSA: 20 mM HEPES pH 7.5, 150 mM NaCl, 1.5 mM MgCl2, 2 mM DTT, 4 C, 0.2 uM DNA (RBR-FKH 0.8 uM, NFAT 0.4 uM); recombinant protein
[5] = test system: FoxP2 RBR-FKH + NFAT1 DBD; test: EMSA; conditions: monomer; EMSA: 20 mM HEPES pH 7.5, 150 mM NaCl, 1.5 mM MgCl2, 2 mM DTT, 4 C, 0.2 uM DNA (RBR-FKH 0.8 uM, NFAT 0.4 uM); recombinant protein
[6] = test system: FoxP3RBR-C-Platypus-mFoxP3FKH + NFAT1 DBD; test: EMSA; conditions: dimer, affinity modestly reduced for some species; EMSA: 20 mM HEPES pH 7.5, 150 mM NaCl, 1.5 mM MgCl2, 2 mM DTT, 4 C, 0.2 uM DNA (RBR-FKH 0.8 uM, NFAT 0.4 uM); recombinant protein
[7] = biological target: MBP-FoxP3dN (Mus musculus) (UniProt Q99JB6); test: pull-down; conditions: Pull-down: 20 mM Tris-HCl pH 7.5, 100 mM NaCl, 1.5 mM MgCl2, room temperature, 0.4 uM MBP protein, 0.1 uM DNA (NFAT 0.2 uM), recombinant protein, residues 188-423, protein details: His6-MBP
[8] = biological target: T1, MBP-FoxP1dN (Mus musculus) (UniProt P58462); test: pull-down; conditions: Pull-down: 20 mM Tris-HCl pH 7.5, 100 mM NaCl, 1.5 mM MgCl2, room temperature, 0.4 uM MBP protein, 0.1 uM DNA (NFAT 0.2 uM); recombinant protein; residues 342-579; protein details: His6-MBP
T1 sequence (looked up): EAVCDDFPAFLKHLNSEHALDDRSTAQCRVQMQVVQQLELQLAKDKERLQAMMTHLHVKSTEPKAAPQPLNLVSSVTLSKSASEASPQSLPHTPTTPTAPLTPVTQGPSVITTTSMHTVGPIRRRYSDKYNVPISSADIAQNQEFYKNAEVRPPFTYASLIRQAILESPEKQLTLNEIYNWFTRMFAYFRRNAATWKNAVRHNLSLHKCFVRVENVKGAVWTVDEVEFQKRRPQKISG

FoxP3dN (Mus musculus) = FoxP3dN (Mus musculus) (UniProt Q99JB6); test: EMSA; conditions: EMSA: 20 mM HEPES pH 7.5, 150 mM NaCl, 1.5 mM MgCl2, 2 mM DTT, 4 C, 0.2 uM DNA (RBR-FKH 0.8 uM, NFAT 0.4 uM); recombinant protein; residues 188-423

TTAGGAAAATTTGTTTACTCGAGTAAACAAA (double strand) [DNA1 (NFAT IR-FKHM)]
binding result [1]: binds | binding result [2]: binds | binding result [3]: binds | binding result [4]: binds | binding result [5]: binds | binding result [6]: binds

AAATTTGCCGCGTCGAGTAAACAAATTT (double strand) [sFKHM (Fig S1F)]
binding result ([7]; negative control): binds more weakly

TAGGAAAATTTGTTTACTCGAGTAAACATC (double strand) [IR-FKHM (Fig 1C)]
binding result [8]: binds

GAATTTGTTTACAGCTGTAAACAAAATT (double strand) [DNA g IR-FKHM spacer mutant]
binding result [7]: binds

AAATTTGTTTACTCGAAATGCACAATTT (double strand) [G1-G2_#6]
binding result (FoxP3dN (Mus musculus)): binds more weakly

TTAGCAGTATTCATCAGCTGGGAGAACA (double strand) [random (Fig S1F)]
binding result [7]: no binding

TTGAAGCGTGCAAGCTTGCACGCTTAAA (double strand) [DNA e IR-GCGTGCA flank and spacer mutant]
binding result [7]: no binding

AAATTGTGCATCTCGAGATGCACAATTT (double strand) [G2-G2_#1]
binding result (FoxP3dN (Mus musculus)): binds more weakly

AAATTGTGCATTTCGAAATGCACAATTT (double strand) [G2-G2_#6]
binding result (FoxP3dN (Mus musculus)): binds more weakly

GAATTTGTTTACGATCGTAAACAAAATT (double strand) [DNA f IR-FKHM spacer mutant]
binding result [7]: binds

TTGAATGTTTACAGCTGTAAACATTAAA (double strand) [DNA i IR-FKHM flank and spacer mutant]
binding result [7]: binds

ATGAGATAGCTTACCTACACGTTAGCAGTA (double strand) [Random (Fig 1C)]
binding result [7]: no binding

GAATTGCGTGCATCGATGCACGCAAATT (double strand) [DNA a/b IR-GCGTGCA]
binding result [7]: binds

TTGAAGCGTGCAGATCTGCACGCTTAAA (double strand) [DNA d IR-GCGTGCA flank and spacer mutant]
binding result [7]: no binding

AAATTTGTTTACTCGAGATGCACAATTT (double strand) [G1-G2_#1]
binding result (FoxP3dN (Mus musculus)): binds more weakly

GAATTGCGTGCAAGCTTGCACGCAAATT (double strand) [DNA c IR-GCGTGCA spacer mutant]
binding result [7]: no binding

TAGGAAAATTTGTTTACTCGACGCGGCATC (double strand) [sFKHM (Fig 1C)]
binding result ([7]; negative control in legend): binds more weakly | binding result [8]: binds

TTGAATGTTTACGATCGTAAACATTAAA (double strand) [DNA h IR-FKHM flank and spacer mutant]
binding result [7]: binds

TTAGGAAAATTTGTTTACTCCTCGCGGCAAA (double strand) [DNA2 (NFAT sFKHM)]
binding result [4]: binds | binding result [5]: binds

For some assays here: Negatives hold for the conditions tested. At least one verdict rests on a figure or table, not on a statement of the authors. Construct, isoform or probe ends are uncertain for at least one entry. For some assays here: The comparison behind a weaker result is the experiment's own reference, which may not be listed here. For some assays here: Protein sequences can lack the tags named with them.
